The assay has as its target T1, wild type Drosophila Orc6 (in vitro transcription/translation) (Drosophila) (UniProt Q9Y1B2).
T1 sequence: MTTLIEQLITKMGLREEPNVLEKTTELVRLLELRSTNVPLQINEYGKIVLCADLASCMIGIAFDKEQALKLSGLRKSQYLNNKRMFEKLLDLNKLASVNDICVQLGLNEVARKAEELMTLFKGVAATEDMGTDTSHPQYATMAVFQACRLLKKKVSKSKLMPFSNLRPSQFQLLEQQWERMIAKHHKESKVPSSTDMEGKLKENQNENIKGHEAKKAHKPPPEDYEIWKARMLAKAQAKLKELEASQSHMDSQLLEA
Put plainly: pull-down.

For one molecule, binding results are on record in doi:10.1101/2020.04.29.068866.

Results are given in words; binding and its absence hold for the method and conditions named. In cells and extracts the contact can be indirect. Some entries that bind do so weakly or less than the wild type.

B1: Orc3 subunit of ORC (in vitro transcription/translation) (protein, UniProt Q7K2L1 1-721)
chain: MDPTISVSKGCFVYKNGATRAGKKAASKRKRPAAESSSLLGKEVVQQPFYEEYRKAWNQINDHIADLQHRSYARTLEQLVDFVVGQAERDTPDEVLPTAALLTGINQPDHLSQFTALTQRLHAQRAAMVCVLQSRDCATLKAAVETLVFGLVEDNAEVEQMEDEDEDEDGAERDRKRLRRSQCTMKQLKSWYTNNFDSEQKRRQLVVILPDFECFNASVLQDLILILSAHCGSLPFVLVLGVATAMTAVHGTLPYHVSSKIRLRVFQTQAAPTGLNEVLDKVLLSPKYAFHLSGKTFKFLTHIFLYYDFSIHGFIQGFKYCLMEHFFGGNAFALCTDYSKALGRIKQLTHEDMETIRRLPSFRPYVEQINDCKRIIAVLTDDDYLKKKLPQLLRDCLLHFLLFRCSLEFLTELVGDLPRCPLGKLRRELYVNCLNRAIISTPEYKECLQMLSFLSKDEFVAKVNRALERTEQFLVEEIAPLELGEACTAVLRPKLEAIRLAVDEVVKATMATITTTSPNETRQATDHLTPVASRQELKDQLLQRSKEDKMRHQLNTPTTQFGRALQKTLQLIETQIVQDHLRALQDAPPIHELFVFSDIATVRRNIIGAPRAALHTALNNPHFYMQCKCCELQDQSLLVGTLPDLSVVYKLHLECGRMINLFDWLQAFRSVVSDSDHEEVAQEQIDPQIQARFTRAVAELQFLGYIKMSKRKTDHATRLTW
Take B1: the binding entry is on record as “binds”.
